Laboratory results from patent US12595239B2, “Substituted isoxazoline derivatives” (BASF SE, priority 2021, dated 2026).
Some entries share one result that the patent states for a list of compounds. At least one structure is not confirmed: it was looked up by name or label, or the drawing left a doubt.

What was measured:
Type in all cases: in vivo
[1] = tested on: Trialeurodes vaporarirorum; experiment: B.2 Greenhouse Whitefly, microtiter plate eggplant leaf disk test; details: 2500 ppm; mortality of hatched crawlers, 6 days
Procedure: For evaluating control of Greenhouse Whitefly, the test unit consisted of 96-well-microtiter plates containing a leaf disk of eggplant leaf disk with Whitefly eggs. The compounds or mixtures were formulated using a solution containing 75% water and 25% DMSO. Different concentrations of formulated were sprayed onto the insect diet at 2.5 μl, using a custom-built micro atomizer, at two replications. After application, microtiter plates were incubated at 23±1° C., 65±5% RH for 6 days. Mortality of hatched crawlers was then visually assessed.

[2] = tested on: Aedes aegypti; details: 2500 ppm; larval mortality, 2 days
[3] = tested on: Anthonomus grandis; experiment: B.1 Boll weevil (Anthonomus grandis), 96-well microtiter plate diet test; details: 2500 ppm; egg and larval mortality, 5 days
[4] = tested on: Spodoptera eridania; experiment: B.11 Southern Armyworm 2nd instar larvae, lima bean foliar spray test; details: 300 ppm, 4 days after treatment
How it was run: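 Scoring of mortality and feeding reduction was done 4 days after treatment, relative to untreated controls. Sieva lima beans at the 1st true leaf stage received an electrostatic foliar spray (50:50 acetone:water, 0.01% surfactant), then were bagged with 10–11 larvae at about 25 °C and 20–40% RH.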

[5] = tested on: Dichromothrips corbetti; experiment: B.7 Orchid Thrips, floral-immersion test; details: 300 ppm; adult thrips, 72 hours after treatment
How it was run: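 Orchid petals were dipped in compound diluted in 1:1 acetone:water with 0.01% v/v Kinetic, dried, then sealed with about 20 lab-colony adult thrips. Arenas were held in the dark at about 28 °C, and percent mortality was scored 72 h after treatment.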

[6] = tested on: Nezara viridula; experiment: B.8 Green Soldier Stink Bug, soybean pod spray test; details: 300 ppm; late 3rd instar, after 5 days
[7] = tested on: Plutella xylostella; experiment: B.6 Diamond Back Moth, cabbage leaf disc dip test; details: 300 ppm; 3rd instar larvae, 72 hours after treatment
How it was run: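 Cabbage leaf discs were dipped in compound in 1:1 water:acetone with 0.01% surfactant, air-dried, then infested with ten 3rd instar larvae. Mortality read at 72 h after treatment, with feeding damage scored on a 0–100% scale.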

[8] = tested on: Myzus persicae; experiment: B.3 Green Peach Aphid (mixed life stages), systemic artificial diet test; details: 2500 ppm; treated aphid diet, 3 days
How it was run: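 Compounds, formulated in 25% DMSO/75% water, were mixed at several concentrations into liquid artificial diet under a membrane, two replicates. 5–8 adult aphids fed on treated diet for 3 days at about 23±1 °C, 50±5% RH. Mortality and fecundity were scored visually.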

[9] = tested on: Heliothis virescens; experiment: B.4 Tobacco Budworm, microtiter plate diet test; details: 2500 ppm; egg and larval mortality, 5 days
How it was run: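 Compounds in 25% DMSO/75% water sprayed at various concentrations onto diet in microtiter wells each holding 15-25 H. virescens eggs, two replicates. Plates kept 5 days at about 28±1 °C and 80±5% relative humidity; egg and larval mortality then scored visually.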

[10] = tested on: Bemisia argentifolii; experiment: B.12 Silverleaf Whitefly (adults), cotton plant spray test; details: 300 ppm, 3 days after treatment
[11] = tested on: Nephotettix virescens; experiment: B.9 Rice Green Leafhopper, rice seedling spray test; details: 300 ppm; adults, after 72 hours
Procedure: Four to five-week old rice seedlings with cut upper leaf portion were cleaned and washed 24 hours before spraying. The active compounds were formulated in 1:1 acetone:water (vol:vol), and 0.01% vol/vol surfactant (Kinetic) was added. Potted rice seedlings were sprayed with 5-6 ml test solution, air dried, covered with Mylar cages and inoculated with 10 adults. Treated rice plants were kept at about 28-29° C. and relative humidity of about 50-60%. Percent mortality was recorded after 72 hours.

[12] = tested on: Tetranychus kanzawai; experiment: B.10 Red Spider Mite, cowpea bean spray test; details: 300 ppm; 72 hours after treatment
Procedure: The active compound was dissolved at the desired concentration in a mixture of 1:1 (vol:vol) distilled water:acetone. Add surfactant (Kinetic) was added at a rate of 0.01% (vol/vol). The test solution was prepared at the day of use. Potted cowpea beans of 4-5 days of age were cleaned with tap water and sprayed with I-2 ml of the test solution using air driven DeVilbiss® hand atomizer at 20-30 psi (≈1,38 to 2,07 bar). The treated plants were allowed to air dry and afterwards inoculated with 30 or more mites by clipping a cassava leaf section from rearing population. Treated plants were placed inside a holding room at about 25-26° C. and about 65-70% relative humidity. Percent mortality was assessed 72 hours after treatment.

Measured: mortality in comparison with untreated controls

O=C(NC1CC1)c1cc(NC2=NOC(c3cc(Cl)cc(Cl)c3)(C(F)(F)F)C2)ccc1OC(F)F (centres unmarked) [I-67]
at least 75%: [1] | [2] | [3] | [4] | [5] | [6] | [7] | [8] | [9]

O=C(Nc1ncc(F)cc1F)c1cc(NC2=NOC(c3cc(Cl)c(F)c(Cl)c3)(C(F)(F)F)C2)ccc1Cl (centres unmarked) [I-63]
at least 75%: [1] | [2] | [3] | [4] | [5] | [6] | [7] | [8] | [9] | [10] | [11]

CC(C)(CS(C)(=O)=O)NC(=O)c1cc(NC2=NOC(c3cc(Cl)c(F)c(Cl)c3)(C(F)(F)F)C2)ccc1Cl (centres unmarked) [I-37]
at least 75%: [1] | [2] | [3] | [4] | [5] | [7] | [8] | [9]

N#CC1(NC(=O)c2cc(OC3=NOC(c4cc(Cl)cc(Cl)c4)(C(F)(F)F)C3)ccc2Cl)CC1 (centres unmarked) [II-1]
at least 75%: [2] | [3] | [4] | [5] | [7] | [8] | [9] | [12] | [10]

CN(C1=NOC(c2cc(Cl)cc(Cl)c2)(C(F)(F)F)C1)c1ccc(Cl)c(C(=O)NC2(C#N)CC2)c1 (centres unmarked) [I-146]
at least 75%: [4] | [5] | [8] | [12] | [11]

CN(C(=O)c1cc(NC2=NOC(c3cc(Cl)c(F)c(Cl)c3)(C(F)(F)F)C2)ccc1Cl)c1ccc(F)cc1 (centres unmarked) [I-42]
at least 75%: [1] | [2] | [3] | [4] | [5] | [7] | [8] | [9]

CN(C(=O)c1cc(OC2=NOC(c3cc(Cl)c(F)c(Cl)c3)(C(F)(F)F)C2)ccc1Cl)C1(C#N)CC1 (centres unmarked) [II-6]
at least 75%: [2] | [3] | [4] | [5] | [6] | [7] | [8] | [9] | [12] | [10] | [11]

O=C(Nc1ccc(F)cc1F)c1cc(NC2=NOC(c3ccc(F)c(Cl)c3)(C(F)(F)F)C2)ccc1Cl (centres unmarked) [I-21]
at least 75%: [1] | [2] | [3] | [4] | [5] | [6] | [7] | [8] | [9] | [10]

CCN1OCC(NC(=O)c2cc(NC3=NOC(c4cc(Cl)c(F)c(Cl)c4)(C(F)(F)F)C3)ccc2Cl)C1=O (centres unmarked) [I-98]
at least 75%: [2] | [3] | [4] | [5] | [6] | [7] | [8] | [9] | [12] | [10]

CN(C(=O)c1cc(OC2=NOC(c3cc(Cl)c(F)c(Cl)c3)(C(F)(F)F)C2)ccc1Cl)c1ccc(F)cc1 (centres unmarked) [II-7]
at least 75%: [2] | [3] | [4] | [5] | [6] | [7] | [8] | [9] | [12] | [10] | [11]

N#CC1(N(CC2CC2)C(=O)c2cc(N(CC3CC3)C3=NOC(c4cc(Cl)cc(Cl)c4)(C(F)(F)F)C3)ccc2Cl)CC1 (centres unmarked) [I-47]
at least 75%: [1] | [3] | [4] | [5] | [7] | [9] | [10]

O=C(NC1(C(=O)NCCC(F)(F)F)CC1)c1cc(NC2=NOC(c3cc(Cl)c(F)c(Cl)c3)(C(F)(F)F)C2)ccc1Cl (centres unmarked) [I-34]
at least 75%: [1] | [2] | [3] | [4] | [5] | [7] | [8] | [9]
